Data on one molecule can be found in article PMC10945584.

These are yes or no findings as the source states them, for the method shown. In cells and extracts the contact can be indirect. Some binding calls cover weakened binding; strength is not graded here.

Experiment [1] addresses BamD, His6-tagged, purified (Escherichia coli) (UniProt P0AC02). Description: pull-down; 10 μM purified BamA or BamD in Buffer A (150 mM NaCl, 20 mM NaPO4) pre-incubated 1 h at 4 °C with 0.35 mM peptide or DMSO, then 35S-OmpC 30 min, Ni-NTA; the pair OmpC with BamA or BamD; only the target purified.
Experiment [2] addresses BamB, His6-tagged, purified (Escherichia coli) (UniProt P77774). In words: pull-down; purified His-tagged BamA, BamD or BamB incubated with 35S-OmpC for 60 min at 4 °C, then Ni-NTA 30 min; wash Buffer A with 20 mM imidazole, elution 400 mM imidazole; SDS-PAGE and radio-imaging; only the target purified.
The target of experiment [3] is BamD, His6-tagged, purified (Escherichia coli) (UniProt P0AC02). Described as above.

B1: 35S-labeled OmpC, in vitro translated (protein, UniProt P06996 1-367)
chain: MKVKVLSLLVPALLVAGAANAAEVYNKDGNKLDLYGKVDGLHYFSDNKDVDGDQTYMRLGFKGETQVTDQLTGYGQWEYQIQGNSAENENNSWTRVAFAGLKFQDVGSFDYGRNYGVVYDVTSWTDVLPEFGGDTYGSDNFMQQRGNGFATYRNTDFFGLVDGLNFAVQYQGKNGNPSGEGFTSGVTNNGRDALRQNGDGVGGSITYDYEGFGIGGAISSSKRTDAQNTAAYIGNGDRAETYTGGLKYDANNIYLAAQYTQTYNATRVGSLGWANKAQNFEAVAQYQFDFGLRPSLAYLQSKGKNLGRGYDDEDILKYVDVGATYYFNKNMSTYVDYKINLLDDNQFTRDAGINTDNIVALGLVYQF
modifications: 35S-methionine label
B1: the binding result is “binds” in experiment [1], “no binding” in experiment [2] and “binds” in experiment [3].
